Data: publication PMC4650652

Assays:
[1] = biological target: Flag-RIG-I deletion mutant carrying the C-terminal domain; assay: co-IP; HEK293T cells co-transfected; lysis buffer 50 mM Tris-HCl pH 7.4, 150 mM NaCl, 10% glycerol, 1% Nonidet P-40, 0.1% SDS, 2 mM Na2EDTA; lysates immunoprecipitated with anti-Flag antibody (overnight, 4 °C, Protein A+G agarose), immunoblotted with anti-HA antibody
[2] = biological target: Flag-RIG-I-N (N-terminal CARD domain of RIG-I); assay: as above

binding [1]: binds | binding [2]: binds
B1: HA-USP15-WT (ubiquitin-specific protease 15, wild type) (enzyme, UniProt Q9Y4E8-2 1-952)
chain: MAEGGAADLDTQRSDIATLLKTSLRKGDTWYLVDSRWFKQWKKYVGFDSWDKYQMGDQNVYPGPIDNSGLLKDGDAQSLKEHLIDELDYILLPTEGWNKLVSWYTLMEGQEPIARKVVEQGMFVKHCKVEVYLTELKLCENGNMNNVVTRRFSKADTIDTIEKEIRKIFSIPDEKETRLWNKYMSNTFEPLNKPDSTIQDAGLYQGQVLVIEQKNEDGTWPRGPSTPNVKNSNYCLPSYTAYKNYDYSEPGRNNEQPGLCGLSNLGNTCFMNSAIQCLSNTPPLTEYFLNDKYQEELNFDNPLGMRGEIAKSYAELIKQMWSGKFSYVTPRAFKTQVGRFAPQFSGYQQQDCQELLAFLLDGLHEDLNRIRKKPYIQLKDADGRPDKVVAEEAWENHLKRNDSIIVDIFHGLFKSTLVCPECAKISVTFDPFCYLTLPLPMKKERTLEVYLVRMDPLTKPMQYKVVVPKIGNILDLCTALSALSGIPADKMIVTDIYNHRFHRIFAMDENLSSIMERDDIYVFEININRTEDTEHVIIPVCLREKFRHSSYTHHTGSSLFGQPFLMAVPRNNTEDKLYNLLLLRMCRYVKISTETEETEGSLHCCKDQNINGNGPNGIHEEGSPSEMETDEPDDESSQDQELPSENENSQSEDSVGGDNDSENGLCTEDTCKGQLTGHKKRLFTFQFNNLGNTDINYIKDDTRHIRFDDRQLRLDERSFLALDWDPDLKKRYFDENAAEDFEKHESVEYKPPKKPFVKLKDCIELFTTKEKLGAEDPWYCPNCKEHQQATKKLDLWSLPPVLVVHLKRFSYSRYMRDKLDTLVDFPINDLDMSEFLINPNAGPCRYNLIAVSNHYGGMGGGHYTAFAKNKDDGKWYYFDDSSVSTASEDQIVSKAAYVLFYQRQDTFSGTGFFPLDRETKGASAATGIPLESDEDSNDNDNDIENENCMHTN

No constants are given. Whether binding was seen depends on the method and setting. Binding seen in cells or lysates may run through a third protein. Binding calls can cover weak binding; strength is not graded here. Sequences can lack the tags named with a protein.
